Among the data in PMC10119135 are binding values, retold here.

Sequences of proteins named here, by UniProt entry; tags and fusion partners are left off.
UniProt P35240: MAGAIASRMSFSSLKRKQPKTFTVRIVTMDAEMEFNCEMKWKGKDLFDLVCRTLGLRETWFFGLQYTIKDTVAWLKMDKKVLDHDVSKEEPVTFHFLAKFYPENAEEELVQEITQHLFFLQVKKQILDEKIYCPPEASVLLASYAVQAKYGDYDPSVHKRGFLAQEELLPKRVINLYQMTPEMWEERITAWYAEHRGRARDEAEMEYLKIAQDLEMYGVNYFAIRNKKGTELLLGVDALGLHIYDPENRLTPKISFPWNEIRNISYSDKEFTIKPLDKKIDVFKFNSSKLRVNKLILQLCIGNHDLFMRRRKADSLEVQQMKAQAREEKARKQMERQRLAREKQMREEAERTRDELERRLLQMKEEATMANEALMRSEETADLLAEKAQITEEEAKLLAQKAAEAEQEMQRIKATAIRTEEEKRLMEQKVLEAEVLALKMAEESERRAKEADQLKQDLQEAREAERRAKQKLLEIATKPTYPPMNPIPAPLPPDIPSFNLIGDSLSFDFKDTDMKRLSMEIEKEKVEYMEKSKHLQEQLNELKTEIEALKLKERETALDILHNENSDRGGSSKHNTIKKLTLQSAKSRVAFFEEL

These are yes or no findings as the source states them, for the method shown. In cells and extracts the contact can be indirect. Some results given as binding are weak or reduced against the parent protein; the word gives no strength.

For test [1], the target named is T1, SFB-LATS1 (UniProt O95835).
T1 sequence: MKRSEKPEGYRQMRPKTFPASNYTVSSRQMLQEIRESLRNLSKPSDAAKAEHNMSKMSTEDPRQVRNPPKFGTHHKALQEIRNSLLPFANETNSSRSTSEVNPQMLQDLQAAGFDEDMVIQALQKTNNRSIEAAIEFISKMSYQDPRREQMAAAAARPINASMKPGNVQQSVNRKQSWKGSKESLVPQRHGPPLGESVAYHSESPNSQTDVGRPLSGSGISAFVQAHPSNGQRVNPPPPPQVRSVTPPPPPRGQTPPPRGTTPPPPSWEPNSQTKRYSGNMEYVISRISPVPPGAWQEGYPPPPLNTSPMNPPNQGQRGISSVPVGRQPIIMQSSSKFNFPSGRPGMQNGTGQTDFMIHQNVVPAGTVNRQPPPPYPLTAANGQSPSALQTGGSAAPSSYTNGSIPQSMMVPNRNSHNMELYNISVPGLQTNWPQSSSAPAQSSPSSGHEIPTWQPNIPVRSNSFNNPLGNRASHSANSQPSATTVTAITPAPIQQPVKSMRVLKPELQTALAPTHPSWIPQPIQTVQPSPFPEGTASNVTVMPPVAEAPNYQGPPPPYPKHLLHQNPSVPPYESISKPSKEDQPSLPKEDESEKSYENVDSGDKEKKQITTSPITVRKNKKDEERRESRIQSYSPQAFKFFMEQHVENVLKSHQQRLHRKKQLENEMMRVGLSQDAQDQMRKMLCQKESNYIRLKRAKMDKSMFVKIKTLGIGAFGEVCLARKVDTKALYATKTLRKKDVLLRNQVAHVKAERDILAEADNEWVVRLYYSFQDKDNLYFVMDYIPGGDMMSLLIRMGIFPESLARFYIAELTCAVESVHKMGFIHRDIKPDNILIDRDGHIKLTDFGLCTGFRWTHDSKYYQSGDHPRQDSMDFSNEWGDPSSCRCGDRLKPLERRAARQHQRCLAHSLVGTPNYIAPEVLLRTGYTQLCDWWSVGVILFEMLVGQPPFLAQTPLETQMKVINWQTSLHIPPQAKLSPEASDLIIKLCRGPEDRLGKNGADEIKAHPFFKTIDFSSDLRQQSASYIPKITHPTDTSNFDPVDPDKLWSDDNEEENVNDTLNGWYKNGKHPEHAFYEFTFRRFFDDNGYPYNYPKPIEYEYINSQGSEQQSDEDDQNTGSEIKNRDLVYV
Description: co-IP; SFB-LATS1, HA-NF2 and LncRIM co-transfected into MCF-7 cells with or without FAC (200 uM) for 24 h; SFB-LATS1 immunoprecipitated by Flag beads.

The target in test [2] is T2, LATS1 (UniProt O95835).
T2 sequence: T1 sequence
Put plainly: co-IP; MCF-7 cell lysates in NETN buffer; cells with LncRIM overexpressed, knocked down, or knocked down and restored with LncRIM truncations (S1, S2, S3).

For HA-NF2 (from UniProt P35240 1-595), the binding entry in test [1] is “binds”.

With NF2 (from UniProt P35240 1-595), in test [2], the binding entry is “binds”.
